Laboratory results taken from patent publication US5776886A, “Intravaginal preparation containing physiologically active peptide” (Teikoku Seiyaku Kabushiki Kaisha, priority 1993, dated 1998).
The source gives many values for each of these; only a part stands here.

System: calcium level in the serum
Experiment: Experiment 4: effects of the concentration of sucrose fatty acid ester on serum calcium reduction
Type: in vivo, Wistar rats
Settings: citric acid 100 mg per 5.00 g, intravaginal suppository 20 μg, rats
Method: An intravaginal suppository was administered into the rat's vagina, and the blood was collected periodically (2, 4 and 6 hours after administration of the test preparation).
The serum was separated, and the calcium level in the serum was determined by using a kit for determination of calcium (Calcium C Test Wako; manufactured by Wako Pure Chemical Industries, Ltd.) (n=3).
Human calcitonin (2 mg) was precisely measured, and thereto were added citric acid (100 mg) and Ryoto-Sugar Ester S-970 (50 mg, 100 mg or 400 mg), and the mixture was mixed well.
In the same manner as in Experiment 1, each intravaginal suppository was administered to the rat's vagina, and the blood was collected periodically (2 and 4 hours after administration of intravaginal suppository), and the calcium level in the serum thereof was determined (n=3).

Human calcitonin
Reduction rate (%) of calcium level in the serum (sucrose fatty acid ester (S-970) 1 w/w %, 4 hr): 16.5% | Reduction rate (%) of calcium level in the serum (sucrose fatty acid ester (S-970) 2 w/w %, 2 hr): 8.0% | Reduction rate (%) of calcium level in the serum (sucrose fatty acid ester (S-970) 2 w/w %, 4 hr): 18.2% | Reduction rate (%) of calcium level in the serum (sucrose fatty acid ester (S-970) 8 w/w %, 2 hr): 21.8% | Reduction rate (%) of calcium level in the serum (sucrose fatty acid ester (S-970) 8 w/w %, 4 hr): 17.5%
